Assay results taken from patent publication US10214724B2, “Methods for differentiation of human pluripotent stem cells to brain microvascular endothelial cells” (Wisconsin Alumni Research Foundation, priority 2016, dated 2019).
At least one compound was matched to its structure with a doubt left.

Tested on: hPSC-derived BMECs
Experiment: Flow cytometry of BMEC marker proteins (claudin-5, Pgp, occludin, ZO-1) with or without RA
Type: cell-based, human
Conditions: day 10
Text: Data were collected on a FACSCaliber flow cytometer (Beckton Dickinson) and analyzed using FlowJo.

## CC1=C(/C=C/C(C)=C/C=C/C(C)=C/C(=O)O)C(C)(C)CCC1 [RA, retinoic acid]
RA treatment vs. absence of RA
  expression level of ZO-1: significantly increased
  expression level of occludin: significantly increased
RA-treated cells vs. absence of RA
  claudin-5 expression level: substantially greater
